# Measurements from the supplement of paper PMC8728848.
# The other results are listed elsewhere or left out.
# What was measured:
# Assay in all cases: glycan array binding signal (z-score within array); higher = stronger binding
# Settings in all cases: glycan notation: IUPAC condensed, linker removed
# [1] = target: Gal(b1-4)GlcNAc(b1-3)Gal(b1-4)GlcNAc(b1-6)[Gal(b1-3)]GalNAc
# Procedure, shortened: (§1)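 Glycan array data came from 3228 arrays in the Consortium for Functional Glycomics database, and only arrays with an available protein sequence were kept. Glycan names were put into IUPAC-condensed notation, and columns mapping to the same glycan were averaged. The binding signal is a within-array Z-score, averaged across arrays of one protein sequence run at different concentrations or buffers and across linkers. A negative Z-score can be read as non-binding.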
# [2] = target: Gal(b1-4)GlcNAc(b1-3)Gal(b1-4)[Fuc(a1-3)]GlcNAc(b1-3)Gal(b1-4)[Fuc(a1-3)]GlcNAc
# Procedure, shortened: as §1
# [3] = target: Gal(b1-4)GlcNAc(b1-3)GalNAc
# Procedure, shortened: as §1
# [4] = target: Gal(b1-4)GlcNAc(b1-3)[Fuc(a1-3)GlcNAc(b1-6)]Gal(b1-4)Glc
# Procedure, shortened: as §1
# [5] = target: Gal(b1-4)GlcNAc(b1-3)[Gal(b1-4)GlcNAc(b1-6)]Gal(b1-4)GlcNAc
# Procedure, shortened: as §1
# [6] = target: Gal(b1-4)GlcNAc(b1-3)[GlcNAc(b1-6)]Gal(b1-4)GlcNAc
# Procedure, shortened: as §1
# [7] = target: Gal(b1-4)GlcNAc(b1-6)Gal(b1-4)GlcNAc
# Procedure, shortened: as §1
# [8] = target: Gal(b1-4)GlcNAc(b1-6)GalNAc
# Procedure, shortened: as §1
# [9] = target: Gal(b1-4)GlcNAc(b1-6)[Gal(b1-3)]GalNAc
# Procedure, shortened: as §1
# [10] = target: Gal(b1-4)GlcNAc(b1-6)[Gal(b1-4)GlcNAc(b1-3)]GalNAc
# Procedure, shortened: as §1
# Gal(b1-4)GlcNAc6P = target: Gal(b1-4)GlcNAc6P
# Procedure, shortened: as §1
# Gal(b1-6)Gal = target: Gal(b1-6)Gal
# Procedure, shortened: as §1
# Gal3S(b1-3)GalNAc = target: Gal3S(b1-3)GalNAc
# Procedure, shortened: as §1
# Gal3S(b1-3)GlcNAc = target: Gal3S(b1-3)GlcNAc
# Procedure, shortened: as §1
# [11] = target: Gal3S(b1-3)[Fuc(a1-4)]GlcNAc
# Procedure, shortened: as §1
# Gal3S(b1-4)Glc = target: Gal3S(b1-4)Glc
# Procedure, shortened: as §1
# Gal3S(b1-4)Glc6S = target: Gal3S(b1-4)Glc6S
# Procedure, shortened: as §1
# Gal3S(b1-4)GlcNAc = target: Gal3S(b1-4)GlcNAc
# Procedure, shortened: as §1
# [12] = target: Gal3S(b1-4)[Fuc(a1-3)]Glc6S
# Procedure, shortened: as §1
# [13] = target: Gal3S(b1-4)[Fuc(a1-3)]GlcNAc
# Procedure, shortened: as §1
# [14] = target: Gal3S(b1-4)[Fuc(a1-3)]GlcNAc6S
# Procedure, shortened: as §1
# Gal3S4S(b1-4)GlcNAc = target: Gal3S4S(b1-4)GlcNAc
# Procedure, shortened: as §1
# Gal3S6S(b1-4)GlcNAc = target: Gal3S6S(b1-4)GlcNAc
# Procedure, shortened: as §1
# Gal3S6S(b1-4)GlcNAc6S = target: Gal3S6S(b1-4)GlcNAc6S
# Procedure, shortened: as §1
# Gal4S(b1-4)GlcNAc = target: Gal4S(b1-4)GlcNAc
# Procedure, shortened: as §1
# Gal4S6S(b1-4)GlcNAc = target: Gal4S6S(b1-4)GlcNAc
# Procedure, shortened: as §1
# Gal6P(b1-4)GlcNAc = target: Gal6P(b1-4)GlcNAc
# Procedure, shortened: as §1
# Gal6S(b1-3)GlcNAc = target: Gal6S(b1-3)GlcNAc
# Procedure, shortened: as §1
# Gal6S(b1-3)GlcNAc6S = target: Gal6S(b1-3)GlcNAc6S
# Procedure, shortened: as §1
# Gal6S(b1-4)Glc = target: Gal6S(b1-4)Glc
# Procedure, shortened: as §1
# Gal6S(b1-4)Glc6S = target: Gal6S(b1-4)Glc6S
# Procedure, shortened: as §1
# Gal6S(b1-4)GlcNAc = target: Gal6S(b1-4)GlcNAc
# Procedure, shortened: as §1
# Gal6S(b1-4)GlcNAc6S = target: Gal6S(b1-4)GlcNAc6S
# Procedure, shortened: as §1
# GalNAc(a1-3)Gal = target: GalNAc(a1-3)Gal
# Procedure, shortened: as §1
# GalNAc(a1-3)GalNAc = target: GalNAc(a1-3)GalNAc
# Procedure, shortened: as §1
# [15] = target: GalNAc(a1-3)GalNAc(b1-3)Gal(a1-4)Gal(b1-4)Glc
# Procedure, shortened: as §1
# [16] = target: GalNAc(a1-3)GalNAc(b1-3)Gal(a1-4)Gal(b1-4)GlcNAc
# Procedure, shortened: as §1
# GalNAc(b1-3)Gal = target: GalNAc(b1-3)Gal
# Procedure, shortened: as §1
# [17] = target: GalNAc(b1-3)Gal(a1-4)Gal(b1-4)GlcNAc
# Procedure, shortened: as §1
# [18] = target: GalNAc(b1-3)Gal(a1-4)Gal(b1-4)GlcNAc(b1-3)Gal(b1-4)Glc
# Procedure, shortened: as §1
# [19] = target: GalNAc(b1-3)Gal(a1-6)Gal(b1-4)Glc
# Procedure, shortened: as §1
# GalNAc(b1-3)GalNAc = target: GalNAc(b1-3)GalNAc
# Procedure, shortened: as §1
# GalNAc(b1-3)GlcNAc = target: GalNAc(b1-3)GlcNAc
# Procedure, shortened: as §1
# GalNAc(b1-4)Gal(b1-4)Glc = target: GalNAc(b1-4)Gal(b1-4)Glc
# Procedure, shortened: as §1
# GalNAc(b1-4)GlcNAc = target: GalNAc(b1-4)GlcNAc
# Procedure, shortened: as §1
binder,measurement,setting,value
Aap arpt (Staphylococcus epidermidis) (protein) NNEAPQMSSTLQAEEGSNAEAPQSEPTKAEEGGNAEAAQSEPTKAEEGGNAEAPQSEPTKAEEGGNAEAAQSEPTKTEEGSNVKAAQSEPTKAEEGSNAEAPQSEPTKTEEGSNAKAAQSEPTKAEEGGNAEAAQSEPTKTEEGSNAEAPQSEPTKAEEGGYAEAPQSEPTKTEEGGNAEAPNVPTIKA,glycan array binding signal (z-score),[1],2.97
same,glycan array binding signal (z-score),[2],-1.06
same,glycan array binding signal (z-score),[3],-0.214
same,glycan array binding signal (z-score),[4],1.05
same,glycan array binding signal (z-score),[5],0.691
same,glycan array binding signal (z-score),[6],0.291
same,glycan array binding signal (z-score),[7],-0.155
same,glycan array binding signal (z-score),[8],0.387
same,glycan array binding signal (z-score),[9],-0.651
same,glycan array binding signal (z-score),[10],-0.307
same,glycan array binding signal (z-score),Gal(b1-4)GlcNAc6P,-0.102
same,glycan array binding signal (z-score),Gal(b1-6)Gal,-0.552
same,glycan array binding signal (z-score),Gal3S(b1-3)GalNAc,0.361
same,glycan array binding signal (z-score),Gal3S(b1-3)GlcNAc,-1.37
same,glycan array binding signal (z-score),[11],0.93
same,glycan array binding signal (z-score),Gal3S(b1-4)Glc,1.59
same,glycan array binding signal (z-score),Gal3S(b1-4)Glc6S,-0.477
same,glycan array binding signal (z-score),Gal3S(b1-4)GlcNAc,-1.36
same,glycan array binding signal (z-score),[12],1.06
same,glycan array binding signal (z-score),[13],-0.457
same,glycan array binding signal (z-score),[14],0.881
same,glycan array binding signal (z-score),Gal3S4S(b1-4)GlcNAc,-0.317
same,glycan array binding signal (z-score),Gal3S6S(b1-4)GlcNAc,-0.119
same,glycan array binding signal (z-score),Gal3S6S(b1-4)GlcNAc6S,1.02
same,glycan array binding signal (z-score),Gal4S(b1-4)GlcNAc,-0.336
same,glycan array binding signal (z-score),Gal4S6S(b1-4)GlcNAc,0.847
same,glycan array binding signal (z-score),Gal6P(b1-4)GlcNAc,0.547
same,glycan array binding signal (z-score),Gal6S(b1-3)GlcNAc,-1.93
same,glycan array binding signal (z-score),Gal6S(b1-3)GlcNAc6S,0.54
same,glycan array binding signal (z-score),Gal6S(b1-4)Glc,-0.15
same,glycan array binding signal (z-score),Gal6S(b1-4)Glc6S,-0.409
same,glycan array binding signal (z-score),Gal6S(b1-4)GlcNAc,0.078
same,glycan array binding signal (z-score),Gal6S(b1-4)GlcNAc6S,0.812
same,glycan array binding signal (z-score),GalNAc(a1-3)Gal,-0.674
same,glycan array binding signal (z-score),GalNAc(a1-3)GalNAc,-1.38
same,glycan array binding signal (z-score),[15],0.342
same,glycan array binding signal (z-score),[16],-1.01
same,glycan array binding signal (z-score),GalNAc(b1-3)Gal,1.73
same,glycan array binding signal (z-score),[17],-0.362
same,glycan array binding signal (z-score),[18],-0.809
same,glycan array binding signal (z-score),[19],-0.992
same,glycan array binding signal (z-score),GalNAc(b1-3)GalNAc,1.53
same,glycan array binding signal (z-score),GalNAc(b1-3)GlcNAc,-0.422
same,glycan array binding signal (z-score),GalNAc(b1-4)Gal(b1-4)Glc,0.457
same,glycan array binding signal (z-score),GalNAc(b1-4)GlcNAc,-0.143

# A different layout for part of the listing above.
binder | measurement | setting | value
Aap arpt (Staphylococcus epidermidis) (protein) NNEAPQMSSTLQAEEGSNAEAPQSEPTKAEEGGNAEAAQSEPTKAEEGGNAEAPQSEPTKAEEGGNAEAAQSEPTKTEEGSNVKAAQSEPTKAEEGSNAEAPQSEPTKTEEGSNAKAAQSEPTKAEEGGNAEAAQSEPTKTEEGSNAEAPQSEPTKAEEGGYAEAPQSEPTKTEEGGNAEAPNVPTIKA | glycan array binding signal (z-score) | Gal3S6S(b1-4)GlcNAc6S | 1.02
same | glycan array binding signal (z-score) | Gal4S(b1-4)GlcNAc | -0.336
same | glycan array binding signal (z-score) | Gal4S6S(b1-4)GlcNAc | 0.847
same | glycan array binding signal (z-score) | Gal6P(b1-4)GlcNAc | 0.547
same | glycan array binding signal (z-score) | Gal6S(b1-3)GlcNAc | -1.93
same | glycan array binding signal (z-score) | Gal6S(b1-3)GlcNAc6S | 0.54
same | glycan array binding signal (z-score) | Gal6S(b1-4)Glc | -0.15
same | glycan array binding signal (z-score) | Gal6S(b1-4)Glc6S | -0.409
same | glycan array binding signal (z-score) | Gal6S(b1-4)GlcNAc | 0.078
same | glycan array binding signal (z-score) | Gal6S(b1-4)GlcNAc6S | 0.812
same | glycan array binding signal (z-score) | GalNAc(a1-3)Gal | -0.674
same | glycan array binding signal (z-score) | GalNAc(a1-3)GalNAc | -1.38
